Measured values reported in publication PMC3260263, “Structural Characterization of a Novel Chlamydia pneumoniae Type III Secretion-Associated Protein, Cpn0803” (PLoS ONE, 2012).

Columns and labels:
[1] = molecular target: T1, GST-Cpn0803_(120–180) (Chlamydia pneumoniae CWL029) (UniProt Q9Z7A3); assay: pull-down; GST-tagged protein (50 ng) on glutathione-agarose beads incubated overnight at 4°C with E. coli lysate expressing the His-tagged protein; washed with 0.1% Triton X-100 and increasing NaCl (500 mM, high salt); anti-His Western blot; only the target purified
T1 sequence: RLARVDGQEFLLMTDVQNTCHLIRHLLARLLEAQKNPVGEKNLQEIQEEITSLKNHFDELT

[2] = molecular target: T2, GST-Cpn0803_(1–50) (Chlamydia pneumoniae CWL029) (UniProt Q9Z7A3); assay: as above
T2 sequence: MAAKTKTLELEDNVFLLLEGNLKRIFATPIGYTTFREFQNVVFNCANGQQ

[3] = molecular target: GST-CdsQ (Chlamydia pneumoniae CWL029); assay: pull-down; C. pneumoniae EB lysate (PBS, 1% Triton X-100) incubated with recombinant GST-tagged proteins for 6 h, glutathione agarose beads overnight; washed with 500 mM NaCl; Western blot with anti-Cpn0803; only the target purified
[4] = molecular target: GST-CdsN (Chlamydia pneumoniae CWL029); assay: as above
[5] = molecular target: GST-CdsF (Chlamydia pneumoniae CWL029); assay: as above
[6] = molecular target: GST-CdsQ (Chlamydia pneumoniae CWL029); assay: pull-down; GST-tagged protein (50 ng) on glutathione-agarose beads incubated overnight at 4°C with E. coli lysate expressing the His-tagged protein; washed with 0.1% Triton X-100 and increasing NaCl (500 mM, high salt); anti-His Western blot; only the target purified
[7] = molecular target: GST-CdsN (Chlamydia pneumoniae CWL029); assay: as above
[8] = molecular target: GST-CdsF (Chlamydia pneumoniae CWL029); assay: as above

## His-CdsN (Chlamydia pneumoniae CWL029) (enzyme)
[1]
  binding: no binding
[2]
  binding: binds

## His-CdsQ (Chlamydia pneumoniae CWL029)
[1]
  binding: binds
[2]
  binding: no binding

B1: native Cpn0803 (protein, UniProt Q9Z7A3 1-184)
chain: MAAKTKTLELEDNVFLLLEGNLKRIFATPIGYTTFREFQNVVFNCANGQQEIANFFFEMLINGKLTQELAPQQKQAAHSLIAEFMMPIRVAKDIHERGEFINFITSDMLTQQERCIFLNRLARVDGQEFLLMTDVQNTCHLIRHLLARLLEAQKNPVGEKNLQEIQEEITSLKNHFDELTKALQ
[3]
  binding: binds
[4]
  binding: binds
[5]
  binding: binds

B2: His-Cpn0803 (natural protein)
chain: MAAKTKTLELEDNVFLLLEGNLKRIFATPIGYTTFREFQNVVFNCANGQQEIANFFFEMLINGKLTQELAPQQKQAAHSLIAEFMMPIRVAKDIHERGEFINFITSDMLTQQERCIFLNRLARVDGQEFLLMTDVQNTCHLIRHLLARLLEAQKNPVGEKNLQEIQEEITSLKNHFDELTKALQ
notes: Cpn0803 of Chlamydia pneumoniae CWL029 (ortholog of C. trachomatis CT584), 184 amino acids; Hexamer and dimer in solution by gel filtration; a SeMet derivative was used for phasing only; also called recombinant His-Cpn0803; full-length Cpn0803; source: E. coli, over-expressed, in lysate (glutathione plate assay, GST pull-down); E. coli, purified on a column eluted with 300 mM imidazole …
[6]
  binding: binds
[7]
  binding: binds
[8]
  binding: binds

These are yes or no findings as the source states them, for the method shown. Binding seen in cells or lysates may run through a third protein. Binding can be weak; no strength is given. For some of these results: Sequences can lack the tags named with a protein.
